Measured values reported in PubChem BioAssay AID2517 (National Center for Advancing Translational Sciences (NCATS), 2010).
The whole screen tested about 350,000 compounds, of which about 1,200 (0.34%) were called active. The inconclusive results got no clear call from the source; some entries with a clear call stand among them for comparison. Calls come from the whole dose curve; as a rule, active = well fitted inhibition curve with a large enough effect; inconclusive = small, poorly fitted or top-dose-only effect; inactive = no such curve, though single readings can be large or run the other way. Potencies beside an inconclusive call are fits to weak or partial responses and may not hold up.

Chains of the proteins cited; added tags and fusions are not shown.
UniProt P27695, whole entry, looked up: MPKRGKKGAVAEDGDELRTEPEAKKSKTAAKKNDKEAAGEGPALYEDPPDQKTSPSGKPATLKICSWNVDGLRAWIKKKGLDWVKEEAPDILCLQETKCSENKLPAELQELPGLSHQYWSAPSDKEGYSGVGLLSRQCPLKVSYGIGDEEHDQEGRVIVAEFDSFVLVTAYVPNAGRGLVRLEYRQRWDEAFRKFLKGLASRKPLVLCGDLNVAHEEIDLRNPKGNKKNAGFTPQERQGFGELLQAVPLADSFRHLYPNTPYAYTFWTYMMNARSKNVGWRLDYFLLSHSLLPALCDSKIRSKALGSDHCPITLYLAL

The compounds below were run against DNA repair nuclease/redox regulator APEX1 (Homo sapiens) (UniProt P27695) (assay: qHTS Assay for Inhibitors of the Human Apurinic/apyrimidinic Endonuclease 1 (APE1)). Conditions: recombinant APE1, TAMRA/BHQ-2 abasic DNA cleavage fluorescence; series mostly up to 65.8 µM.
In short: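 0.75 nM APE1 + cpd, 15 min RT; start w/ 50 nM TAMRA/BHQ-2 THF-abasic dsDNA; kinetic fluor 525/598 nm ×3 reads @60 s; Δ(read3−read1); normalized to DMSO and NSC13755 control wells.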
Note: nearly all actives have a fitted effect of over 55% in size.
Potency is the fitted concentration of half-maximal effect.

Row | SMILES | Potency
1 | Cc1cc(NC(=O)CCCn2ccc([N+](=O)[O-])n2)n(Cc2ccc(F)cc2)n1 | inconclusive: 39.8 µM [inhibitor, single point]
2 | COC(=O)CC1=COC2OCC3=CC[C@@H]1C32 (stereo partly drawn) | inconclusive: 7.94 µM [inhibitor, single point]
3 | O=C(NC(=S)N1CCc2ccccc21)C1CCC1 | inconclusive: 44.7 µM [inhibitor, single point]
4 | O=C(CC1C(=O)NCCN1C(=S)Nc1ccccc1)Nc1ccc(F)cc1 (stereo not drawn) | inconclusive: 0.0891 µM [inhibitor, full curve, poor fit]
5 | O=C(Nc1ccc(-c2nc3ccc(NC(=O)c4cccs4)cc3[nH]2)cc1)c1cccs1 | inconclusive: 31.6 µM [inhibitor, single point]
6 | CS(=O)(=O)N(Cc1ccc(Cl)cc1)c1ccc(C(=O)NCCSCc2ccco2)cc1 | inconclusive: 22.4 µM [inhibitor, single point]
7 | O=C(CSc1nnc(CNc2cccc(C(F)(F)F)c2)n1Cc1ccco1)NCc1ccco1 | inactive
8 | COc1ccc(NC(=O)Cc2ccccc2)cn1 | inactive
9 | Cc1ccnc(NC(=S)NC(=O)/C=C/c2ccco2)c1 | inconclusive: 22.4 µM [inhibitor, single point]
10 | CNc1cc2c(Nc3cccc(Br)c3)ncnc2cn1 | inconclusive: 17.8 µM [inhibitor, single point]
11 | CN(C)c1nc(F)c(F)c(S(=O)(=O)c2ccccc2)c1F | inconclusive: 8.44 µM [inhibitor, single point]
12 | O=C(CN1C(=O)NC(c2ccccc2)(c2ccccc2)C1=O)Nc1cccnc1Cl | inconclusive: 0.005 µM [inhibitor, full curve, poor fit]
13 | CCOc1ccc(N(C(=O)c2ccccc2Cl)C2=NC(C)(C)CS2)cc1 | inconclusive: 39.8 µM [inhibitor, single point]
14 | CCOC(=O)CC(NC(=O)c1ccco1)c1ccc(C)cc1 (stereo not drawn) | inconclusive: 44.7 µM [inhibitor, single point]
15 | O=C1NC(=O)C(c2ccccc2[N+](=O)[O-])=C1Nc1ccc(O)c(Cl)c1 | inconclusive: 44.7 µM [inhibitor, partial curve]
16 | COc1cccc(NC(=O)CSc2nc(C3CC3)nc3ccccc23)c1 | inactive
17 | O=C(/C=C/c1ccco1)Nc1scc(-c2ccccc2)c1C(=O)O | inconclusive: 1.58 µM [inhibitor, partial curve]
18 | CC1(c2ccc([N+](=O)[O-])c(CS(=O)(=O)c3ccccc3)c2)OCCO1 | inconclusive: 0.398 µM [inhibitor, full curve, poor fit]

In the list so far, these have an aryl thioether with sulfur outside any ring.
Row | SMILES | Potency
7 | O=C(CSc1nnc(CNc2cccc(C(F)(F)F)c2)n1Cc1ccco1)NCc1ccco1 | inactive
16 | COc1cccc(NC(=O)CSc2nc(C3CC3)nc3ccccc23)c1 | inactive
